Experimental data taken from PubChem BioAssay AID196 (DTP/NCI, 2004).
Toxic doses and inconclusive results are not listed.

Tested on: BDF1 mice, intracerebral B16 melanoma, median survival T/C
Experiment: NCI In Vivo Anticancer Drug Screen. Data for tumor model B16 Melanoma (intracerebral) in B6D2F1 (BDF1) mice
Settings: endpoint: median survival time, schedule: Q01DX005 (ip), vehicle: Klucel (hydroxypropylcellulose) (HPC), higher = longer survival
Protocol: The antitumor activity of compounds was measured in mice bearing transplantable tumors. Survival or tumor size were measured and the results are expressed as the measurement made in the treated group (T) divided by the measurement made in the vehicle treated control group (C). The tumor model used in this assay is B16 Melanoma (intracerebral) in B6D2F1 (BDF1) mice

COc1cc2c(c(OC)c1OC)-c1ccc(OC)c(=O)cc1[C@@H](N)CC2
T/C (dose: 4.0 mg/kg/injection): 95 % of control
T/C (dose: 8.0 mg/kg/injection): 95 % of control
